In patent US4409141 (dated 1983):

Test: general procedure: solution-phase peptide synthesis; WSCI/HOBT; OSU and ONP active esters with HOBT, 2,4-dinitrophenol; azide method

Boc-E(OBn)K(ClZ)S(Bn)LG-OH
step yield (coupling step): 73.5%

Boc-VLT(Bn)K(ClZ)A-OH
step yield (late stage modification step): 73.1%

Boc-K(ClZ)S(Bn)LG-OH
step yield (late stage modification step): 87%

Boc-S(Bn)HE(OBn)K(ClZ)S(Bn)LG-OH
step yield (coupling step): 60.1%

Boc-VD(OBn)VLT(Bn)K(ClZ)AK(ClZ)S(Bn)Q-OBn
step yield (coupling step): 98.2%

Boc-VLT(Bn)K(ClZ)AK(ClZ)S(Bn)Q-OBn
step yield (coupling step): 90.68%

BOC--Lys(Z--Cl)--Ala--Asp(OBzl)--Val--Asp(OBzl)--Val--Leu--Thr(Bzl)--Lys(ZCl)--Ala--Lys(Z--Cl)--Ser (Bzl)--Gln--OBzl
step yield (coupling step): 96.7%

BOC--Asn--VAl--Leu--Val--OH
step yield (late stage modification step): 71.4%

P(55-84): BOC--Glu(OBzl)--Asp(OBzl)--Asn--Val--Leu--Val--Glu(OBzl)--Ser(Bzl)--His--Glu(OBzl)--Lys(Z--Cl)--Ser(Bzl)--Leu--Gly--Glu(OBzl)--Ala--Asp(OBzl)--Lys(Z- -Cl)--Ala--Asp(OBzl)--Val--Asp(OBzl)--Val--Leu--Thr(Bzl)--Lys(Z--Cl)--Ala-- Lys(Z--Cl)--Ser(Bzl)--Gln--OBzl
step yield (coupling step): 93.3%

Boc-AD(OBn)K(ClZ)AD(OBn)VD(OBn)VLT(Bn)K(ClZ)AK(ClZ)S(Bn)Q-OBn
step yield (coupling step): 98.3%

P(56-84): BOC--Asp(OBzl)--Asn--Val--Leu--Val--Glu(OBzl)--Ser(Bzl)--His--Glu(OBzl)--Lys(Z--Cl)--Ser(Bzl)--Leu--Gly--Glu(OBzl)--Ala--Asp(OBzl)--Lys(Z--Cl)--Ala-- Asp(OBzl)--Val--Asp(OBzl)--Val--Leu--Thr(Bzl)--Lys(Z--Cl)--Ala--Lys(Z--Cl)- -Ser(Bzl)--Gln--OBzl
step yield (coupling step): 92.5%

Boc-VLT(Bn)K(ClZ)A-OMe
step yield (coupling step): 94.9%

Boc-D(OBn)K(ClZ)AD(OBn)VD(OBn)VLT(Bn)K(ClZ)AK(ClZ)S(Bn)Q-OBn
step yield (coupling step): 95.0%

Boc-D(OBn)VD(OBn)VLT(Bn)K(ClZ)AK(ClZ)S(Bn)Q-OBn
step yield (coupling step): 94.2%

Boc-D(OBn)VLT(Bn)K(ClZ)AK(ClZ)S(Bn)Q-OBn
step yield (coupling step): 99.14%

Boc-E(OBn)AD(OBn)K(ClZ)AD(OBn)VD(OBn)VLT(Bn)K(ClZ)AK(ClZ)S(Bn)Q-OBn
step yield (coupling step): 96.5%

Boc-K(ClZ)S(Bn)LG-OBn
step yield (coupling step): 94.6%

P(62-84): BOC--Ser(Bzl)--His--Glu(OBzl)--Lys(Z--Cl)--Ser(Bzl)--Leu--Gly--Glu(OBzl)-- Ala--Asp(OBzl)--Lys(Z--Cl)--Ala--Asp(OBzl)--Val--Asp(OBzl)--Val--Leu--Thr(Bzl)--Lys(Z--Cl)--Ala--Lys(Z--Cl)--Ser(Bzl)--Gln--OBzl
step yield (coupling step): 88.4%

P(61-84): BOC--Glu(OBzl)--Ser(Bzl)--His--Glu(OBzl)--Lys(Z--Cl)--Ser(Bzl)--Leu--Gly-- Glu(OBzl)--Ala--Asp(OBzl)--Lys(Z--Cl)--Ala--Asp(OBzl)--Val--Asp(OBzl)--Val- -Leu--Thr(Bzl)--Lys(Z--Cl)--Ala--Lys(Z--Cl)--Ser(Bzl)--Gln--OBzl
step yield (coupling step): 93.2%

BOC--Asn--VAl--Leu--Val--OBzl
step yield (coupling step): 79.5%

*: point of attachment. ClZ = O=C(OCc1ccccc1Cl)*; Boc = CC(C)(C)OC(=O)*; OBn = c1ccc(CO*)cc1; Bn = c1ccc(C*)cc1
